PubChem BioAssay AID1259308, NCATS, 2017
This is a random part of about 59,000 reagents tested. Over the whole deposit, about 1,510 (2.6%) are marked active. 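Calls use total luciferase alone and ignore viability, so some active siRNAs may act by altering cell number.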 A number with no mark means an inactive call. The numbers tell different reagents against one gene apart. Further read-outs or replicates are left out here. No sequences are given here.

Aim: 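Candidate targets for better recombinant protein yield in mammalian cells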 (primary screen)
System: human HEK293 embryonic kidney cells stably expressing firefly luciferase (HEK-CMV-Luc2-Hygro)
Knock-down reagent: single siRNA against human genes, 0.8 pmol siRNA per well
Duration: 72 h
Measured: 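Reporter luminescence and viable-cell signal on separate replicate plates, given as percent of non-targeting control and median/MAD z-scores, plus per-cell luciferase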
Reading the numbers: total luciferase, z-score: higher = more reporter protein produced
Rule for the call: 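An siRNA counts as active if its total luciferase robust z-score exceeds 3; genes with two or more such siRNAs out of three were retested with fresh siRNAs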
Meaning of the calls: active = raised luciferase; inactive = no rise

Depletion of EIF4G1 #1 came out at: total luciferase, z-score -1.63. With knock-down of EIF4G1 #2, the screen gave total luciferase, z-score 0.0751. Depletion of EIF4G1 #3 gave: total luciferase, z-score -0.509. For QRSL1 #1 the deposit lists total luciferase, z-score -0.333. After knock-down of QRSL1 #2, the record shows total luciferase, z-score -0.496. After knock-down of QRSL1 #3 the results were total luciferase, z-score -0.133.

With knock-down of ASCL3 #1 the results were total luciferase, z-score -2.64. With knock-down of ASCL3 #2 the results were total luciferase, z-score 1.63. With knock-down of ASCL3 #3 the results were total luciferase, z-score 0.945. Knock-down of PBX2 #1 gave: total luciferase, z-score -0.0448. Depletion of PBX2 #2 resulted in: total luciferase, z-score -0.665. Knock-down of PBX2 #3 gave: total luciferase, z-score -0.562.

After knock-down of ST6GALNAC5 #1, the record shows total luciferase, z-score -0.991. After knock-down of ST6GALNAC5 #2, the screen gave total luciferase, z-score -1.21. Knock-down of ST6GALNAC5 #3 came out at: total luciferase, z-score -0.208. After knock-down of ABCD2 #1, the screen gave total luciferase, z-score -0.495. ABCD2 #2 showed total luciferase, z-score 1.16. For ABCD2 #3, the entry reads total luciferase, z-score -1.04.

Against MCM9 #1, the entry reads total luciferase, z-score 0.0536. After knock-down of MCM9 #2, the screen gave total luciferase, z-score -1.31. Depletion of MCM9 #3 resulted in: total luciferase, z-score -0.287. Depletion of DPF1 #1 resulted in: total luciferase, z-score 2.25. After knock-down of DPF1 #2, the screen gave total luciferase, z-score 1.11. After knock-down of DPF1 #3 the results were total luciferase, z-score -0.204.

After knock-down of SRGAP2 #1, the record shows total luciferase, z-score 0.0645. With knock-down of SRGAP2 #2, the screen gave total luciferase, z-score -1.02. After knock-down of SRGAP2 #3 the results were total luciferase, z-score 0.159. With knock-down of SRGAP2 #4, the record shows total luciferase, z-score -0.14. SRGAP2 #5 scored total luciferase, z-score 2.84. After knock-down of SRGAP2 #6, the screen gave total luciferase, z-score 0.8.

Silencing of ADPRS #1 resulted in: total luciferase, z-score -0.0709. Against ADPRS #2 the deposit lists total luciferase, z-score -0.628. With knock-down of ADPRS #3, the record shows total luciferase, z-score 2.33.
